# Screening data, single-dose tests

The values are deposited in ChEMBL (CHEMBL3988442, “University of Dundee, Small-Polar-MMV Screening Library” (2021)).

Mtb glucose medium: 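Growth of Mycobacterium tuberculosis over 3 days (7H9 medium with glucose and tyloxapol); the read-out is not stated. Tested at 50 µM. The record gives no direction; compounds that gave an IC50 in retests scored well above the rest, so higher reads as more growth inhibition. Size under these conditions: about 69,000 compounds, about 760 of them at 50% or above in at least one test.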
Mtb cholesterol medium: 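Phenotypic screen: M. tuberculosis growth, cholesterol and DPPC medium, 4 days; the read-out is not stated. Tested at 50 µM. Direction is inferred from retests: higher values go with more growth inhibition. About 69,000 compounds were tested under these conditions; 0.54% (about 370) showed 50% or more at least once.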

Values are the deposited “Percent Effect”, in %.
How 0% and 100% were set is not recorded. Most values in the screen are low, and negative values occur.
Compounds were drawn at random from those tested, without regard to their results.
Two or more numbers in one place are separate tests of the same structure; such repeats can differ widely.

Compound,Mtb glucose medium,Mtb cholesterol medium
CCOc1ccc(-c2cc(CCN)ccc2OC)cc1,48.46,33.68
Cc1cccc(C(=O)NCc2ccccc2)n1,38.61,32.75
COCCc1ncc(CNC2(c3ccc(Cl)cc3Cl)CC2)cn1,14.8,-22.16
O=C(c1ccc(-n2ccnc2)cc1)N1CCCC1,-15.05 & -8.639,-8.452
CCS(=O)(=O)N1CCc2cc(C(=O)NC)c(N(C)C)nc2CC1,-2.167 & 24.64,13.27
CC(C)c1nnc2n1CCN(c1nc3ccccc3o1)C2,6.486,-5.741
O=C(c1cccc(-c2ccc(F)cc2)c1)N1CCC2(CC1)[C@H](O)C[C@@H]2O,-14.42,-6.42
CN(C)C1CCCN(C(=O)NCCC(=O)N2CCCCCC2)C1 (configuration not stated),9.927,4.035
CCOCC1CN(S(=O)(=O)C2CC2)Cc2nn(C)cc21 (configuration not stated),-3.038,-25.59
Cc1nnc(N2CCOC(C)C2)c(C#N)c1C (configuration not stated),8.421,0.5518
Cc1cc(C)n(CC2CN(CC(=O)NCc3cccs3)CCO2)n1 (configuration not stated),-13.32,-17.27
O=C(O)C(F)(F)F.O=C(O)C(F)(F)F.[H][C@]12CCC[C@@H](CNc3ncccn3)[C@@]1([H])CN(CCOC)C2,2.102,-3.395
CC1COCCN1C(=O)COc1cccc(Oc2ccccn2)c1 (configuration not stated),3.471,5.258
Cc1cccc2[nH]c(C3CCCN3Cc3ccc(CO)o3)nc12 (configuration not stated),-6.36,-12.32 & 2.138
Cc1ccccc1Oc1ncccc1CNC1CCC1,25.26 & 0.1784,15.91
O=C(CC1CCCC1)Nc1ccc(-n2cc(Br)cn2)nc1,3.176,-46.82
CCOC(=O)N1CCN(C(=O)c2sc(-c3ccc(F)cc3)nc2C)CC1,-7.32,-30.74
Cc1ccc(C)n1C(C)C(=O)N1CCCN(Cc2cscn2)CC1 (configuration not stated),22.07,4.143
O=c1c2ccccc2nc2n1CCC2O (configuration not stated),4.576 & -5.235,15.06
CN(C(=O)c1ccnn1C)[C@@H]1CCC[C@@H](Oc2ccccc2)[C@@H]1O,16.24,18.44
CN(Cc1ccccc1CN1CCCC1)c1ncnc2[nH]ccc12,39.96,7.609
CC(=O)N1CCCC2(CCN(C(=O)c3nn(C)c4ccccc34)CC2)C1,-5.179,-0.8999
CC(C)C(NCc1ccc(Cn2cncn2)cc1)c1ccccc1 (configuration not stated),-7.395,-4.022
CCOc1cccnc1C(=O)N1CCC(c2ccccc2OC)C1 (configuration not stated),23.93,5.397
Cc1cc(C(=O)N2CCCC2c2noc(C)n2)[nH]n1 (configuration not stated),15.61,12.23
[H][C@@]12CCN(S(C)(=O)=O)C[C@]1(c1nnc(C)o1)CCO2,3.69,-17.88
O=C(O)C(F)(F)F.[H][C@]12C[C@@H](Cn3cncn3)N(C(C)C)[C@@]1([H])CCN(Cc1cccs1)C2,-19.25,-7.746
CCOCC1CN(Cc2cnn(C)c2)Cc2c1cnn2CC.O=C(O)C(F)(F)F (configuration not stated),-34.74,-10.54
COc1ccccc1CCN[C@@H]1c2ccccc2C2(CCNCC2)[C@H]1O,19.04,7.018
CC(=O)NCCC(=O)NCc1cc(Br)ccc1OC(F)F,5.21,3.963 & -8.122
O=C(C[S+]([O-])C1CCCC1)NCCOc1cccc(Cl)c1 (configuration not stated),28.73,15.48
Cc1nc(CN2CCCC(CCc3c(F)cccc3F)C2)c[nH]1 (configuration not stated),35.48,7.62
CC(C)(C)C(O)CN1CCN(CC(=O)NCC(F)(F)F)CC1 (configuration not stated),-38.58,-15.14
CCN(CC)Cc1ccccc1NC(=O)N(C)Cc1ccc(OC)cc1,29.44,10.12 & 11.9
CCCc1nc(C(=O)N2CCCn3nc(CCC(=O)O)cc3C2)cs1,-25.28,4.923
CC(C)c1n[nH]c(C2CN(C(=O)CCn3ccccc3=O)CCO2)n1 (configuration not stated),-8.907,-15.69
Cc1ccc(C(=O)N2CCn3cc(CN4CCCCC4)nc3C2)o1.O=C(O)C(F)(F)F,-27.3,7.548
COCCCn1c(CN2CCSCC2)cnc1S(=O)(=O)C1CCCC1,-11.87,-25.7
CCC[C@H]1CN(CCS(C)(=O)=O)C[C@@H]1NC(=O)c1ccccc1F,-12.17,-7.799
O=C1C(Nc2ccc3nccnc3n2)CCN1c1ccccc1F (configuration not stated),-0.05984,1.189
O=C(Cn1ccnc1)N1CCC(n2cc(-c3cccc(Cl)c3)nn2)CC1,25.11,-12.61
CC(C)C(NC(=O)NCc1cccnc1N(C)C)c1cccs1 (configuration not stated),23.08,0.07796
CC1CCN(C(=O)C2CC(=O)N(c3cnn(C(C)C)c3)C2)CC1 (configuration not stated),5.186 & -1.148,-13.3
CC(C(=O)NC(C)(C)C)N1CCC(C(=O)Nc2cnccn2)CC1 (configuration not stated),12.79,-36.32
CN(Cc1ccc2c(c1)OCO2)Cc1nc(-c2ccco2)no1,34.47,46.51
CC(C)[C@@H]1CN(C(=O)NCc2ccco2)C[C@H]1N(C)C,16.39,72.06
Cc1noc(C)c1CNC(=O)N1Cc2ccccc2N(C)CC1C (configuration not stated),-6.602 & 34.09,30.46